This passage reports binding results from publication PMC7538575.

By UniProt entry, the sequences of proteins in these tests, tags left out.
UniProt P42227: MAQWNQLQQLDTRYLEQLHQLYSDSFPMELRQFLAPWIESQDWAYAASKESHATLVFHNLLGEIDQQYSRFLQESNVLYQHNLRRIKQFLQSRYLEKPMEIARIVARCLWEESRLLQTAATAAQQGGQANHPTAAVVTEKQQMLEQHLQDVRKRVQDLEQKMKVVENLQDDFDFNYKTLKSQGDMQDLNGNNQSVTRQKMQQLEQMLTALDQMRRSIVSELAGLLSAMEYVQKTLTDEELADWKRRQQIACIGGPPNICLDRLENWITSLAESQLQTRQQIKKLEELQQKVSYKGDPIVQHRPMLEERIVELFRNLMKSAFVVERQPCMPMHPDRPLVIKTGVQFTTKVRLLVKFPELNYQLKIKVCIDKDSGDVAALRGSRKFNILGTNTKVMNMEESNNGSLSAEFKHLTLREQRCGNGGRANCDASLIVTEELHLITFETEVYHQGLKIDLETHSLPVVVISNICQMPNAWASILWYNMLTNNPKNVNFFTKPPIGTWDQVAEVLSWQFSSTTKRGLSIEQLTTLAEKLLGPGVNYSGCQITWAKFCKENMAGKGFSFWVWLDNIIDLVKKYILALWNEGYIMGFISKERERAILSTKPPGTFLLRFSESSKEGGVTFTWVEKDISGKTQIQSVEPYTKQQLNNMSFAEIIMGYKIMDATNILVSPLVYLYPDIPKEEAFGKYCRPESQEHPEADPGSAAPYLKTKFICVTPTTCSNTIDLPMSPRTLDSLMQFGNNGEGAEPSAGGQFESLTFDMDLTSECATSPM
UniProt O09106: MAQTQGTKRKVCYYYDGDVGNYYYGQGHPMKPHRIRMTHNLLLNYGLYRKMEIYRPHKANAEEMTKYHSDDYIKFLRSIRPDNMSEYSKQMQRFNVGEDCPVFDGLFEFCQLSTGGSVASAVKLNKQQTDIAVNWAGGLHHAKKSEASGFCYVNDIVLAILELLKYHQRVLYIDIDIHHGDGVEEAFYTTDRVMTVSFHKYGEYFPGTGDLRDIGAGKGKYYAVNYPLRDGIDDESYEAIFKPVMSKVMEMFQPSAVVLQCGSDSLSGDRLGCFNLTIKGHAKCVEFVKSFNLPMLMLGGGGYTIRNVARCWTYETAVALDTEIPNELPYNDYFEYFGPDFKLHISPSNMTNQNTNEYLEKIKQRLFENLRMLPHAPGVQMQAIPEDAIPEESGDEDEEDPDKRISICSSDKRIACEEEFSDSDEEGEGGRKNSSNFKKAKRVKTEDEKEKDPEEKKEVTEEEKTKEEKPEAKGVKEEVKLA

These are yes or no findings as the source states them, for the method shown. Binding seen in cells or lysates may run through a third protein. Some results given as binding are weak or reduced against the parent protein; the word gives no strength.

What all share (test): co-IP; endogenous proteins in total lysates of BV2 cells (LPS 100 ng/ml or IL-4 20 ng/ml for 24 h, with or without parthenolide 1 μM); lysis in buffer A (20 mM TrisHCl pH 7.4, 150 mM NaCl, 1% Triton X-100, 0.5% sodium deoxycholate); immunoprecipitated with anti-STAT1, anti-STAT3 or anti-STAT6 overnight at 4 °C on protein A/G magnetic beads; immunoblot
(In western blotting, separated proteins are transferred to a membrane and probed.)

In experiment [1] the target is T1, STAT6 (mouse (endogenous in BV2)) (UniProt P52633).
T1 sequence: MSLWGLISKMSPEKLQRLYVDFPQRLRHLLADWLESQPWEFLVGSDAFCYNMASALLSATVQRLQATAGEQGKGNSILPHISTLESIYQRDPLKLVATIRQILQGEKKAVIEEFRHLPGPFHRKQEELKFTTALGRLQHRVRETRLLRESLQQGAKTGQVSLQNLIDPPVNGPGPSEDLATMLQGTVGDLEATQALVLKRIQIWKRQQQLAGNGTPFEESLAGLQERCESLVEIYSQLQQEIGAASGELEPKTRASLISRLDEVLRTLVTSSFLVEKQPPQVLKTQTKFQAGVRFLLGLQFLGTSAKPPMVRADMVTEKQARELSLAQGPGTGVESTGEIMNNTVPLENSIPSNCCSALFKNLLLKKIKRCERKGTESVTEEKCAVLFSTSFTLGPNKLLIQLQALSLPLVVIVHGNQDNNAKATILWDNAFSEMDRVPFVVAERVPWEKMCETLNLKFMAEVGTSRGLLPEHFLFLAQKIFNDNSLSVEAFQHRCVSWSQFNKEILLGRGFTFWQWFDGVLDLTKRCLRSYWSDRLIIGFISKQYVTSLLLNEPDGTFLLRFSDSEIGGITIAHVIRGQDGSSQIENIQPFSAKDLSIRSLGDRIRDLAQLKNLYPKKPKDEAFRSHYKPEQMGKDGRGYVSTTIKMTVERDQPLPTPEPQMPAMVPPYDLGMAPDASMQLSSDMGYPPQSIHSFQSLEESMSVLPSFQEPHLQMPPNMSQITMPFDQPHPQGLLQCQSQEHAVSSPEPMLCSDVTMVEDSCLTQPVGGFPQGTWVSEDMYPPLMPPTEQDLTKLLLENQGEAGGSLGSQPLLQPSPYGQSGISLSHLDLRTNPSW

Experiment [2] has as its target T2, signal transducer and activator of transcription 1 (STAT1) (mouse (endogenous in BV2)) (UniProt P42225).
T2 sequence: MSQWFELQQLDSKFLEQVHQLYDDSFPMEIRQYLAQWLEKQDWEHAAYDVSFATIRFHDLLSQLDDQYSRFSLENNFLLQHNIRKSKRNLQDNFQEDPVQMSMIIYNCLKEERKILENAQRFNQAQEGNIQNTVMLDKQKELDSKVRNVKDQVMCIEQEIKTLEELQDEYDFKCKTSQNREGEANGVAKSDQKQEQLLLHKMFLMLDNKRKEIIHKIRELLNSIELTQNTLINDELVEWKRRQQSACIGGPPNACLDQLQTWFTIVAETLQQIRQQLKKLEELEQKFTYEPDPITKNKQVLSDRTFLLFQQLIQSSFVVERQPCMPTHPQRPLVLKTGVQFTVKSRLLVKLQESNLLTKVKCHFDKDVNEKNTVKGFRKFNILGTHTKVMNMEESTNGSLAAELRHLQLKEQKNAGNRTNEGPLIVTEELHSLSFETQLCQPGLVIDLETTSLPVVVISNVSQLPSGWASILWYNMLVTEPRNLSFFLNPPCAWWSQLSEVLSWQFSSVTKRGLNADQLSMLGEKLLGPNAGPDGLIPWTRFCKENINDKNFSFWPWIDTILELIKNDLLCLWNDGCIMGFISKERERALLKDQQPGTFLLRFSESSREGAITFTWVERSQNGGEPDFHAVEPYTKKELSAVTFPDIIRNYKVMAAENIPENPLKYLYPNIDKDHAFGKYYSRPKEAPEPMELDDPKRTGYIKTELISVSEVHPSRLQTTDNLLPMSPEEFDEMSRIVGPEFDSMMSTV

Experiment [3] addresses signal transducer and activator of transcription 3 (STAT3) (mouse (endogenous in BV2)) (UniProt P42227).
For experiment [4], the target named is T3, signal transducer and activator of transcription 1 (STAT1) (mouse (endogenous in BV2)), P42225.
T3 chain: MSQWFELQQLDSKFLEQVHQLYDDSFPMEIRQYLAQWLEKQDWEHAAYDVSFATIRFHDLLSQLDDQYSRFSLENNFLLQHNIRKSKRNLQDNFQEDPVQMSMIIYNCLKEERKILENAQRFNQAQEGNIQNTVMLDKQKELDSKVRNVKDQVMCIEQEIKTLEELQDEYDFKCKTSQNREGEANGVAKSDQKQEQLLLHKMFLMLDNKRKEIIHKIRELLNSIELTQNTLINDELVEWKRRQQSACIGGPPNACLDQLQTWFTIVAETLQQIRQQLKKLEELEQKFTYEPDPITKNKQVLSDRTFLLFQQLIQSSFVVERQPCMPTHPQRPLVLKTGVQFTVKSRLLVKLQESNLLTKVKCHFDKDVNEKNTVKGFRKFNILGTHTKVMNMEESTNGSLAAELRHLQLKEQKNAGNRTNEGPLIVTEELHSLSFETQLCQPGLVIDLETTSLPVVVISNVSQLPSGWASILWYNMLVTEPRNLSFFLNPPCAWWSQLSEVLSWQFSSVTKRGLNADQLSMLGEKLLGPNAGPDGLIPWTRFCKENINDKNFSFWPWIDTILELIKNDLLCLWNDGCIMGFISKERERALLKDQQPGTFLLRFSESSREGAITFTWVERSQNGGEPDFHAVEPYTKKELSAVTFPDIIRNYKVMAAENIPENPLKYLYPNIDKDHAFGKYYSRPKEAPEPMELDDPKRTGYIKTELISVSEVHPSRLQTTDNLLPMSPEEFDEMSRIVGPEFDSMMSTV
Particulars: remark: other sources report otherwise.

With “HDAC1 (from UniProt O09106 1-482) (enzyme)”, the binding result in experiment [1], in experiment [2] and in experiment [3] was “binds” throughout.

B1: NF-κB (p65), Q04207 1-549 (protein)
chain: MDDLFPLIFPSEPAQASGPYVEIIEQPKQRGMRFRYKCEGRSAGSIPGERSTDTTKTHPTIKINGYTGPGTVRISLVTKDPPHRPHPHELVGKDCRDGYYEADLCPDRSIHSFQNLGIQCVKKRDLEQAISQRIQTNNNPFHVPIEEQRGDYDLNAVRLCFQVTVRDPAGRPLLLTPVLSHPIFDNRAPNTAELKICRVNRNSGSCLGGDEIFLLCDKVQKEDIEVYFTGPGWEARGSFSQADVHRQVAIVFRTPPYADPSLQAPVRVSMQLRRPSDRELSEPMEFQYLPDTDDRHRIEEKRKRTYETFKSIMKKSPFNGPTEPRPPTRRIAVPTRNSTSVPKPAPQPYTFPASLSTINFDEFSPMLLPSGQISNQALALAPSSAPVLAQTMVPSSAMVPLAQPPAPAPVLTPGPPQSLSAPVPKSTQAGEGTLSEALLHLQFDADEDLGALLGNSTDPGVFTDLASVDNSEFQQLLNQGVSMSHSTAEPMLMEYPEAITRLVTGSQRPPDPAPTPLGTSGLPNGLSGDEDFSSIADMDFSALLSQISS
On to B1, for which the binding entry in experiment [4] was “binds”.
